No constants are given. Whether binding was seen depends on the method and setting. Binding seen in cells or lysates may run through a third protein. Some entries that bind do so weakly or less than the wild type. For some of these results: Sequences can lack the tags named with a protein.
T1: Rev3-ΔCTD (GST-Rev3-ΔCTD), Rev3 lacking amino acids 1381-1504 (S. cerevisiae) (UniProt P14284)
T1 sequence: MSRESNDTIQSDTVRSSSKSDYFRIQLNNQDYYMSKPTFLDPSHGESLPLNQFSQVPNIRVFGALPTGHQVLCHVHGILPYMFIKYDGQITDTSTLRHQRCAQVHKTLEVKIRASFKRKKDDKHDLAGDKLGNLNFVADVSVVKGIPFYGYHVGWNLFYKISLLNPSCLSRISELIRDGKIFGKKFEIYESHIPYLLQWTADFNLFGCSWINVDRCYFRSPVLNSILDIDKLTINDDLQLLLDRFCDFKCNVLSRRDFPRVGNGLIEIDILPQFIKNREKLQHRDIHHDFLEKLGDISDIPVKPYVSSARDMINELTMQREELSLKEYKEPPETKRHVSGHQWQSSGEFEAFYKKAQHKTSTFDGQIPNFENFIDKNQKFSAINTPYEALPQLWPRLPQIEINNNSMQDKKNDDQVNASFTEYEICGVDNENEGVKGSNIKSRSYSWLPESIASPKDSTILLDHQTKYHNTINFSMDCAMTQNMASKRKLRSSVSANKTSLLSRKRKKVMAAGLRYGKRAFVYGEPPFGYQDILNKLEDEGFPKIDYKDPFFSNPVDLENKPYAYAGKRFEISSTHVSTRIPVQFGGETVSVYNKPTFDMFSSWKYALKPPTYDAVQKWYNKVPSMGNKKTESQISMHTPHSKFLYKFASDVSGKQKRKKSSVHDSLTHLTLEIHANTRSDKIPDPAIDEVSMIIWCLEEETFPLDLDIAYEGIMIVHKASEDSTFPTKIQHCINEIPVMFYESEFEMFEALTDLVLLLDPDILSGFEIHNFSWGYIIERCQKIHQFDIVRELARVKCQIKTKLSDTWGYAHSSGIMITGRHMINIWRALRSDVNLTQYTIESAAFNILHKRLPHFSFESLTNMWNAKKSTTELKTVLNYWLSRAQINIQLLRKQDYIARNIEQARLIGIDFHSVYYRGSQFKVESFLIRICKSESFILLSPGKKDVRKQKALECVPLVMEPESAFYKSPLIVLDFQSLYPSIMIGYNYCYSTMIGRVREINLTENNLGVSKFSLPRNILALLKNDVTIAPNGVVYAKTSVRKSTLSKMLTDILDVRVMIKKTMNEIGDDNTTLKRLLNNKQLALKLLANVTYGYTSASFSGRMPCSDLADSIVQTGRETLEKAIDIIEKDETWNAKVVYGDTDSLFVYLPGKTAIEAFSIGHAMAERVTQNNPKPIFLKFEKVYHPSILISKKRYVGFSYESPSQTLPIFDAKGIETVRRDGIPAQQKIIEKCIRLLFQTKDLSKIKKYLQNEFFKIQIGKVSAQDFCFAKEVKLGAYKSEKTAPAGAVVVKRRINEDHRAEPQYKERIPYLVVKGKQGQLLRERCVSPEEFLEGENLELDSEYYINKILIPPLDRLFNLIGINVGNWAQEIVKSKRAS

Sequences of proteins named here, by UniProt entry; tags and fusion partners are left off. A change or cut given only in a name is not applied to a line headed by its entry.
UniProt P47110: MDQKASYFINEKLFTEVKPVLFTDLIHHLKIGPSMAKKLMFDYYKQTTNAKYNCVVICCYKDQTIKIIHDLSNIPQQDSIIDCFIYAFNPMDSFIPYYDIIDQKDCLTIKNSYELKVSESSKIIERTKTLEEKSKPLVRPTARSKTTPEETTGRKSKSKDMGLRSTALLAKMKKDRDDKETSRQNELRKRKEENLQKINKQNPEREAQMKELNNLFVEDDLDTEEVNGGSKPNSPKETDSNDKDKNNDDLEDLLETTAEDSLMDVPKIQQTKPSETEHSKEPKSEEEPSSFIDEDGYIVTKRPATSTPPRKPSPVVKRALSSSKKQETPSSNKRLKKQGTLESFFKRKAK

B1: Rev7, accessory subunit of DNA polymerase ζ (protein, UniProt P38927 1-245)
chain: MNRWVEKWLRVYLKCYINLILFYRNVYPPQSFDYTTYQSFNLPQFVPINRHPALIDYIEELILDVLSKLTHVYRFSICIINKKNDLCIEKYVLDFSELQHVDKDDQIITETEVFDEFRSSLNSLIMHLEKLPKVNDDTITFEAVINAIELELGHKLDRNRRVDSLEEKAEIERDSNWVKCQEDENLPDNNGFQPPKIKLTSLVGSDVGPLIIHQFSEKLISGDDKILNGVYSQYEEGESIFGSLF
B2: Pol31, accessory subunit shared by pol ζ and pol δ (protein, UniProt P46957 1-487)
chain: MDALLTKFNEDRSLQDENLSQPRTRVRIVDDNLYNKSNPFQLCYKKRDYGSQYYHIYQYRLKTFRERVLKECDKRWDAGFTLNGQLVLKKDKVLDIQGNQPCWCVGSIYCEMKYKPNVLDEVINDTYGAPDLTKSYTDKEGGSDEIMLEDESGRVLLVGDFIRSTPFITGVVVGILGMEAEAGTFQVLDICYPTPLPQNPFPAPIATCPTRGKIALVSGLNLNNTSPDRLLRLEILREFLMGRINNKIDDISLIGRLLICGNSVDFDIKSVNKDELMISLTEFSKFLHNILPSISVDIMPGTNDPSDKSLPQQPFHKSLFDKSLESYFNGSNKEILNLVTNPYEFSYNGVDVLAVSGKNINDICKYVIPSNDNGESENKVEEGESNDFKDDIEHRLDLMECTMKWQNIAPTAPDTLWCYPYTDKDPFVLDKWPHVYIVANQPYFGTRVVEIGGKNIKIISVPEFSSTGMIILLDLETLEAETVKIDI

Assays:
[1] = molecular target: Rev3, catalytic subunit of DNA polymerase ζ (GST-Rev3) (S. cerevisiae) (UniProt P14284); test: pull-down; co-purification from yeast overproducing GST-Rev3, Rev7, Pol31 and 7xHis-Pol32: glutathione Sepharose 4B (washes with 300, 200, 100 mM KCl), glutathione elution, GST cleaved with PreScission, then Ni-IMAC; 4 °C; subunits seen on Coomassie gel
[2] = molecular target: T1, Rev3-ΔCTD (GST-Rev3-ΔCTD), Rev3 lacking amino acids 1381-1504 (S. cerevisiae); test: pull-down; co-purification from yeast overproducing GST-Rev3-ΔC, Rev7, Pol31 and 7xHis-Pol32: glutathione Sepharose 4B, glutathione elution, GST cleaved with PreScission, then Mono S column instead of Ni-IMAC; 4 °C; bands seen on Coomassie gel

| Molecule | binding [1] | binding [2] |
| --- | --- | --- |
| Pol32, accessory subunit shared by pol ζ and pol δ (7xHIS_POL32) (from UniProt P47110 1-350) | binds | – |
| B1 | binds | binds |
| B2 | binds | – |
